PubChem BioAssay AID686938 | Drosophila RNAi Screening Center – 2013
In all, the deposit lists about 23,000 reagents; this is an unselected part of those that have a named target and a result. Of all reagents, 75 (0.33%) are marked active. 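Raw plate signals without normalisation; calls rest on plate z-scores that were not deposited; ratio present for only 364 wells.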 Names joined by + are all predicted targets of the reagent. Not stated in the record: the dose of the treatment.

Purpose: 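Looking for CRAC channel components and the factors controlling them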 (primary screen)
Cell system: Drosophila S2R+ cells
Reagents: long dsRNA against Drosophila genes, about 0.25 µg dsRNA per well, roughly 10,000 cells
Duration: 5 days of knock-down before the calcium assay
Treatment: thapsigargin (SERCA pump blocker) to empty calcium stores; entry signal taken 4 min after adding it
Read-out: 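Duplicate raw fluo-4 intensities per well from a plate reader, at rest and four minutes after thapsigargin emptied calcium stores; entry-to-rest ratio filled for only some wells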
Scale: calcium entry signal: higher = stronger calcium signal after store depletion; resting calcium signal: higher = higher resting calcium signal
Units: calcium entry signal in fluorescence units; resting calcium signal in fluorescence units
Hit rule: 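Hit if the duplicate-averaged plate z-score for entry over resting signal is under −3; wells with weak total dye signal (Fmax z < −2) or more than 5 off-targets removed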
Calls: active = strongly reduced calcium entry; inactive = no strong reduction

CG31705 [DRSC01991] → calcium entry signal, replicate 1: 3.51e7; resting calcium signal, replicate 1: 2.57e7; call: inactive
asRNA:CR42547 + CG15674 [DRSC04264] → calcium entry signal, replicate 1: 4.50e7; calcium entry signal, replicate 2: 4.99e7; resting calcium signal, replicate 1: 2.25e7; resting calcium signal, replicate 2: 2.12e7; call: inactive
CG40378 (retired record) [DRSC20958] → calcium entry signal, replicate 1: 2.82e7; calcium entry signal, replicate 2: 3.48e7; resting calcium signal, replicate 1: 1.39e7; resting calcium signal, replicate 2: 1.56e7; call: inactive
CG40378 (retired record) [DRSC22174] → calcium entry signal, replicate 1: 3.47e7; calcium entry signal, replicate 2: 2.82e7; resting calcium signal, replicate 1: 2.13e7; resting calcium signal, replicate 2: 1.49e7; call: inactive
CG13443 [DRSC06403] → calcium entry signal, replicate 1: 3.03e7; calcium entry signal, replicate 2: 2.95e7; resting calcium signal, replicate 1: 1.48e7; resting calcium signal, replicate 2: 1.30e7; call: inactive
Zip42C.2 (Zinc/iron regulated transporter-related protein 42C.2) [DRSC05004] → calcium entry signal, replicate 1: 3.79e7; calcium entry signal, replicate 2: 4.63e7; resting calcium signal, replicate 1: 2.00e7; resting calcium signal, replicate 2: 2.21e7; call: inactive
aos (argos) [DRSC11323] → calcium entry signal, replicate 1: 3.77e7; calcium entry signal, replicate 2: 5.51e7; resting calcium signal, replicate 1: 1.84e7; resting calcium signal, replicate 2: 2.18e7; call: inactive
CG4956 [DRSC15683] → calcium entry signal, replicate 1: 5.01e7; calcium entry signal, replicate 2: 6.89e7; resting calcium signal, replicate 1: 2.29e7; resting calcium signal, replicate 2: 2.82e7; call: inactive
Pif1A + Pif1B [DRSC14142] → calcium entry signal, replicate 1: 5.20e7; calcium entry signal, replicate 2: 4.37e7; resting calcium signal, replicate 1: 2.43e7; resting calcium signal, replicate 2: 2.01e7; call: inactive
Pif1A + Pif1B [DRSC14380] → calcium entry signal, replicate 1: 3.27e7; calcium entry signal, replicate 2: 3.69e7; resting calcium signal, replicate 1: 1.45e7; resting calcium signal, replicate 2: 1.60e7; call: inactive
Pif1A + Pif1B [DRSC14381] → calcium entry signal, replicate 1: 5.16e7; calcium entry signal, replicate 2: 4.36e7; resting calcium signal, replicate 1: 2.72e7; resting calcium signal, replicate 2: 2.04e7; call: inactive
LManII (Lysosomal alpha-mannosidase II) [DRSC01986] → calcium entry signal, replicate 1: 4.31e7; resting calcium signal, replicate 1: 2.27e7; call: inactive
Tom (Twin of m4) [DRSC11306] → calcium entry signal, replicate 1: 2.41e7; calcium entry signal, replicate 2: 3.91e7; resting calcium signal, replicate 1: 1.14e7; resting calcium signal, replicate 2: 2.63e7; call: inactive
CG8060 [DRSC07064] → calcium entry signal, replicate 1: 3.99e7; calcium entry signal, replicate 2: 3.39e7; resting calcium signal, replicate 1: 1.85e7; resting calcium signal, replicate 2: 1.62e7; call: inactive
CR15280 (pseudo) [DRSC01953] → calcium entry signal, replicate 1: 3.48e7; calcium entry signal, replicate 2: 2.17e7; resting calcium signal, replicate 1: 1.67e7; resting calcium signal, replicate 2: 1.04e7; call: inactive
CG31462 (retired record) [DRSC14359] → calcium entry signal, replicate 1: 3.58e7; calcium entry signal, replicate 2: 2.85e7; resting calcium signal, replicate 1: 1.77e7; resting calcium signal, replicate 2: 1.44e7; call: inactive
ATPsynGL (ATP synthase, subunit G-like) [DRSC03027] → calcium entry signal, replicate 1: 2.56e7; calcium entry signal, replicate 2: 4.09e7; resting calcium signal, replicate 1: 1.25e7; resting calcium signal, replicate 2: 1.88e7; call: inactive
Fbxo42 (F-box protein 42) [DRSC04529] → calcium entry signal, replicate 1: 3.71e7; resting calcium signal, replicate 1: 1.74e7; call: inactive
Tpc2 [DRSC04322] → calcium entry signal, replicate 1: 4.07e7; calcium entry signal, replicate 2: 4.66e7; resting calcium signal, replicate 1: 2.15e7; resting calcium signal, replicate 2: 2.35e7; call: inactive
Myo95E (Myosin 95E) [DRSC15821] → calcium entry signal, replicate 1: 2.65e7; calcium entry signal, replicate 2: 2.88e7; resting calcium signal, replicate 1: 1.21e7; resting calcium signal, replicate 2: 1.38e7; call: inactive
Nup98-96 (Nucleoporin 98-96kD) [DRSC14209] → calcium entry signal, replicate 1: 1.86e7; calcium entry signal, replicate 2: 2.02e7; resting calcium signal, replicate 1: 1.27e7; resting calcium signal, replicate 2: 1.17e7; call: inactive
Nup98-96 (Nucleoporin 98-96kD) [DRSC14210] → calcium entry signal, replicate 1: 2.63e7; calcium entry signal, replicate 2: 2.23e7; resting calcium signal, replicate 1: 1.64e7; resting calcium signal, replicate 2: 1.37e7; call: inactive
